Source: US20050233413A1, “Neuroprotective polypeptides and methods of use” (priority 2002, published 2005)
Like-named read-outs stand apart in the source and are kept apart here. Part of at least one peptide drawing is inferred or uncertain, most often the ends. Some entries share one result that the patent states for a list of compounds.

Key:
[1] = tested on: F11 cells transfected with V642I-APP cDNA; assay: F11 cell death by V642I-APP transfection (Trypan blue exclusion); assay type: cell-based; settings: for concentration up to which no cytoprotection against V642I-APP was exerted: F11 cells; for % dead cells of total cells: 72 hr after transfection
Text: (§1) In one assay, transfection with V642I-APP causes cell death in F11 neuronal hybrid cells. In the other, treatment with Aβ peptides causes cell death in primary cultured cortical neurons.
F11 cells, the hybrid of a rat embryonic-day-13 primary cultured primary neuron and a mouse neuroblastoma cell, are one of the best models for primary cultured neurons as they carry representative characteristics of primary neurons, such as generation of action potentials without differentiation by NGF [22]. They have been used in various studies of is neuronal functions. Using these cells, the underlying mechanisms for cytotoxicity by V642I-APP have well been analyzed. Cytotoxicity by V642 mutants of APP has also been confirmed in multiple different systems. F11 cells were grown in Ham's F-12 (GibcoBRL, Gaithersburg, Md.) plus 18% fetal bovine serum (FBS; Hyclone, Logan, Utah) and antibiotics, as described previously. F11 cells (7×10^4 cell/well in a 6-well plate cultured in Ham's F-12 plus 18% FBS for 12-16 hr) were transfected with plasmids encoding FAD genes by lipofection [FAD cDNA 2 μg, LipofectAMINE 4 μl, PLUS reagent 8 μl (GibcoBRL)] in the absence of serum for 3 hr, and were incubated with Ham's F-12 plus 18% FBS for 2 hr. Then, culture media were changed to Ham's F-12 plus 10% FBS with or without HN peptides, and cells were cultured for an additional 67 hr. Seventy-two hr after transfection, cell mortality was measured by Trypan blue exclusion assay, performed as follows. Cells were suspended by pipetting gently, and 50 μl of 0.4% (finally 0.08%) Trypan blue solution (Sigma, St Louis, Mo.) was mixed with 200 μl of the cell suspension at room temperature. Stained cells were counted within 3 min after the mixture with Trypan blue solution.

[2] = tested on: primary cultured neurons treated with 25 μM Aβ1-43; assay type: cell-based; settings: for Calcein fluorescence, percentage of neurons without treatment: 72 hours, means±S.D.
Description: as §1
The primary culture of mouse cortical neurons was performed in poly-L-lysine-coated 24-well plates or 96-well plates (Sumitomo Bakelite, Akita, Japan), in the absence of serum and the presence of N2 supplement, as described previously. The purity of neurons by this method was >98%. Prepared neurons (for neurons seeded in 96-well plates: 2.5×10^4 or 5×10^4 cells/well, 100 μl culture medium/well; for neurons seeded in 24-well plates: 1.25×10^5 cells/well, 250 μl culture medium/well) were preincubated with or without 10 μM (in case for the experiment with 10 μM HN) synthetic HN for 16 hr, and treated with 25 μM Aβ in the presence or absence of 10 μM HN for 72 hr, respectively. As primary neurons were vulnerable to transient dryness during medium exchange, we treated neurons with 25 μM Aβ as follows. First, a half volume (50 μl for neurons in 96-well plates; 125 μl for neurons in 24-well plates) of old medium was discarded. Then, the same volume (50 μl for neurons in 96-well plates; 125 μl for neurons in 24-well plates) of prewarned fresh medium containing 10 μM HN and 50 μM Aβ (Aβ was directly resolved) was added to the culture. The Aβ peptides used at 25 μM to induce neurotoxicity formed aggregation in the medium during the cell culture at 37° C. for 72 hr. as described. The WST-8 cell viability assay was performed, using Cell Counting Kit-8 (Wako Pure Chemical Industries, Osaka, Japan), as described previously.
Calcein assay was performed with Calcein-AM {3′,6′-di-(O-acetyl)-2′,7′-bis [N,N-bis(carboxymethyl)aminomethyl] fluorescein, tetraacetoxymethyl ester; Dojindo}, as described previously. These assays were simultaneously performed in the experiments with neurons seeded in 96-well plates, as follows. Seventy-two hours after Aβ treatment, cells were added with the mixture of 10 μl WST-8 solution and 1 μl of 600 μM Calcein-AM. After 2 hr incubation in a CO2 incubator at 37° C., WST-8 absorbance was measured as OD450. After exchanging the medium to PBS to lower the background, Calcein-specific fluorescence (ex=485 nm, em=535 nm) was observed by fluorescence microscopy or measured by a spectrofluorometer (Wallac1420 ARVOsx Multi Label Counter). Most cell viability data using Calcein assay and WST-8 assay were obtained from neurons seeded at 5×10^4 cells/well in 96-well plates (high-density neurons) and confirmed by both assays with the cells seeded at 2.5×10^4 cells/well (low-density neurons).
Some experiments for Calcein assay were performed with neurons seeded in 24-well plates. […] In most experiments using primary neurons, four independent experiments were performed and the means? S. D. of the results were discussed.

[3] = tested on: Aβ and four FAD genes (V642I-APP, NL-APP, M146L-PS1, and N141I-PS2); assay type: cell-based; settings: Table 5, marked *
Text: F11 cells, the hybrid of a rat embryonic-day-13 primary cultured primary neuron and a mouse neuroblastoma cell, are one of the best models for primary cultured neurons as they carry representative characteristics of primary neurons, such as generation of action potentials without differentiation by NGF [22]. They have been used in various studies of is neuronal functions. Using these cells, the underlying mechanisms for cytotoxicity by V642I-APP have well been analyzed. Cytotoxicity by V642 mutants of APP has also been confirmed in multiple different systems. […] Seventy-two hr after transfection, cell mortality was measured by Trypan blue exclusion assay, performed as follows. […] Stained cells were counted within 3 min after the mixture with Trypan blue solution. […]
Calcein assay was performed with Calcein-AM {3′,6′-di-(O-acetyl)-2′,7′-bis [N,N-bis(carboxymethyl)aminomethyl] fluorescein, tetraacetoxymethyl ester; Dojindo}, as described previously. […] After 2 hr incubation in a CO2 incubator at 37° C., WST-8 absorbance was measured as OD450. After exchanging the medium to PBS to lower the background, Calcein-specific fluorescence (ex=485 nm, em=535 nm) was observed by fluorescence microscopy or measured by a spectrofluorometer (Wallac1420 ARVOsx Multi Label Counter). […]

[4] = tested on: HN (self-dimerization); assay: Dimerization experiment (Ni-bead precipitation of FLAG-tagged peptide by (His)6-tagged peptide); assay type: binding; settings: anti-FLAG immunoblot
Description: Synthetic (His)6-tagged HN derivative peptides (1 nmol) was incubated with 20 μl of Ni-NTA agarose (QIAGEN, Hilden, Germany) in a total volume of 0.5 ml of buffer A [20 mM Tris/HCl (pH8.0) and 1 mM DTT] for 1 hr at 4° C. and washed once with buffer B [20 mM Tris/HCl (pH 7.4), 1 mM DTT, and 150 mM NaCl]. Synthetic FLAG-tagged peptides (1 nmol) were mixed with the beads immobilizing (His)6-tagged peptides in a total volume of 0.5 ml of buffer B for 2 hr at 4° C. on a rotating shaker, and washed three times with buffer B. The washed beads were mixed with 20 μl of 2× sampling buffer [100 mM Tris/HCl (pH6.8), 200 mM DTT, 4% (w/v) SDS, 0.2% bromophenol blue, and 20% (v/v) glycerol] and boiled. The supernatant was submitted to Tris/Tricine SDS-PAGE, followed by immunoblotting analysis with 1/5000 anti-FLAG monoclonal antibody M2 (Sigma).

Row | Compound | concentration up to which no cytoprotection against V642I-APP was exerted [1] [µM] | % dead cells of total cells ([1]; V642I-APP + 10 nM peptide) [%] | % dead cells of total cells ([1]; V642I-APP + 100 nM peptide) [%] | % dead cells of total cells ([1]; V642I-APP + 1 μM peptide) [%] | % dead cells of total cells ([1]; V642I-APP + 10 μM peptide) [%] | concentration of full suppression of neuronal death by Aβ1-43 ([2]; 25 μM Aβ1-43) [µM] | Calcein fluorescence, percentage of neurons without treatment ([2]; 25 μM Aβ1-43 + 10 nM peptide) [%] | Calcein fluorescence, percentage of neurons without treatment ([2]; 25 μM Aβ1-43 + 100 nM peptide) [%] | Calcein fluorescence, percentage of neurons without treatment ([2]; 25 μM Aβ1-43 + 1 μM peptide) [%] | Calcein fluorescence, percentage of neurons without treatment ([2]; 25 μM Aβ1-43 + 10 μM peptide) [%] | Full protection (minimal concentration that exerted full cytoprotection) [3] | self-dimerization / complex formation (in words) [4]
1 | YMAPRGFSCLLLLTGEIDLPVKKKK [HNG-KKK, HNG with its C-terminal KRRA substituted to KKKK] | > 100 | – | – | – | – | – | – | – | – | – | – | –
2 | CC[C@H](C)[C@H](NC(=O)[C@H](CCC(=O)O)NC(=O)[C@H](CO)NC(=O)[C@@H](NC(=O)[C@H](CC(C)C)NC(=O)[C@H](CC(C)C)NC(=O)[C@H](CC(C)C)NC(=O)[C@H](CC(C)C)NC(=O)[C@H](CS)NC(=O)[C@H](CO)NC(=O)[C@H](Cc1ccccc1)NC(=O)CNC(=O)[C@H](CCCNC(=N)N)NC(=O)[C@@H]1CCCN1C(=O)[C@H](C)NC(=O)[C@@H](N)CCSC)[C@@H](C)O)C(=O)N[C@@H](CC(=O)O)C(=O)N[C@@H](CC(C)C)C(=O)N1CCC[C@H]1C(=O)N[C@H](C(=O)N[C@@H](CCCCN)C(=O)N[C@@H](CCCNC(=N)N)C(=O)N[C@@H](CCCNC(=N)N)C(=O)N[C@@H](C)C(=O)O)C(C)C [HN, reference compound] | – | 53.3 ± 0.9 | 29.6 ± 1.2 | 17.1 ± 2.1 | 10.3 ± 0.5 | 10 | 7.5 ± 1.0 | 13.8 ± 1.3 | 78.9 ± 4.4 | 91.6 ± 7.6 | ˜10 μM | can self-dimerize
3 | EFLIVIKS [dimerization peptide, reference compound] | > 100 | – | – | – | – | – | – | – | – | – | – | –
